Data reported in PMC11721465.
These are yes or no findings as the source states them, for the method shown. Some entries that bind do so weakly or less than the wild type. Each block holds one binder with its values, some of them ahead of it.

Tests used:
[1] = molecular target: T1, TREM2 (19–134) R76D, biotinylated (human) (UniProt Q9NZC2); experiment: BLI; biotinylated TREM2 WT or variant immobilised on SA biosensors; IL-34 62.5–1000 nM; PBS with 0.1% BSA and 0.005% Tween-20; 1:1 kinetic fits; both purified
T1 sequence (chain, biotin on the C-terminal BirA biotinylation sequence (enzymatic, BirA)): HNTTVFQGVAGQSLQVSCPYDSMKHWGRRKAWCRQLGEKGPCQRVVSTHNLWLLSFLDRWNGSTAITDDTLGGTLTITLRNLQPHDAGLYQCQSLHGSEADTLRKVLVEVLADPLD

[2] = molecular target: T2, TREM2 (19–134) WT, biotinylated (human) (UniProt Q9NZC2); experiment: BLI; sequential competition: biotinylated TREM2 WT on SA biosensors dipped into a first ligand or no ligand, then buffer, then a second ligand; binding of the second ligand = response at end minus beginning of Association 2; both purified
T2 sequence (chain, biotin on the C-terminal BirA biotinylation sequence (enzymatic, BirA)): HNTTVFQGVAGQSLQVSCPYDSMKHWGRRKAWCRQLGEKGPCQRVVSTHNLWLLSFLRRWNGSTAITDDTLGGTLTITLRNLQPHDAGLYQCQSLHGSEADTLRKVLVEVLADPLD

[3] = molecular target: sTREM2 (19–157) WT (human) (UniProt Q9NZC2); experiment: SEC-MALS; 10 µL of sTREM2 WT at 2 mg/mL on a Superdex 200 Increase 5/150 GL column; both purified
[4] = molecular target: sTREM2 (19–157) W44D/L69D/L71D (human) (UniProt Q9NZC2); experiment: SEC; elution volumes of sTREM2 variants compared with WT (Supplemental Fig. 3); both purified
[5] = molecular target: sTREM2 (19–157) L69D/L71D (human) (UniProt Q9NZC2); experiment: as above

- binding [1]: no binding (tested: 62.5–1000 nM)
- binding [2]: binds
B1: Human IL-34 (19–241) (ligand, UniProt Q6ZMJ4 19-241)
chain: LGNEPLEMWPLTQNEECTVTGFLRDKLQYRSRLQYMKHYFPINYKISVPYEGVFRIANVTRLQRAQVSERELRYLWVLVSLSATESVQDVLLEGHPSWKYLQEVETLLLNVQQGLTDVEVSPKVESVLSLLNAPGPNLKLVRPKALLDNCFRVMELLYCSCCKQSSVLNWQDCEVPSPQSCSPEPSLQYAATQLYPPPPWSPSSPPHSTGSVRPVRAQGEGLL

- binding [3]: no binding (tested: 2 mg/mL)
B2: sTREM2 (19–157) WT (domain or fragment, UniProt Q9NZC2 19-157)
chain: HNTTVFQGVAGQSLQVSCPYDSMKHWGRRKAWCRQLGEKGPCQRVVSTHNLWLLSFLRRWNGSTAITDDTLGGTLTITLRNLQPHDAGLYQCQSLHGSEADTLRKVLVEVLADPLDHRDAGDLWFPGESESFEDAHVEH

- binding [4]: no binding
B3: sTREM2 (19–157) W44D/L69D/L71D (domain or fragment, UniProt Q9NZC2 19-157)
chain: HNTTVFQGVAGQSLQVSCPYDSMKHDGRRKAWCRQLGEKGPCQRVVSTHNDWDLSFLRRWNGSTAITDDTLGGTLTITLRNLQPHDAGLYQCQSLHGSEADTLRKVLVEVLADPLDHRDAGDLWFPGESESFEDAHVEH

- binding [5]: no binding
B4: sTREM2 (19–157) L69D/L71D (domain or fragment, UniProt Q9NZC2 19-157)
chain: HNTTVFQGVAGQSLQVSCPYDSMKHWGRRKAWCRQLGEKGPCQRVVSTHNDWDLSFLRRWNGSTAITDDTLGGTLTITLRNLQPHDAGLYQCQSLHGSEADTLRKVLVEVLADPLDHRDAGDLWFPGESESFEDAHVEH
